This note sets out measurements from the supplement of paper PMC12819154, “High-throughput peptide-centric local stability assay extends protein–ligand identification to membrane proteins, tissues and bacteria” (Nature Structural & Molecular Biology, 2025).

Sequences of proteins named here, by UniProt entry; tags and fusion partners are left off. A change or cut given only in a name is not applied to a line headed by its entry.
UniProt P43487, whole entry: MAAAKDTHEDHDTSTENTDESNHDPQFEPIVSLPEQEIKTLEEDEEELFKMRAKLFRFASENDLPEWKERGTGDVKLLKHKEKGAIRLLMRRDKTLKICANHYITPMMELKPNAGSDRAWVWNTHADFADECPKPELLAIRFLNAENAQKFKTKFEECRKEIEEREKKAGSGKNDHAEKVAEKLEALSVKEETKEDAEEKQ
UniProt P32929, whole entry: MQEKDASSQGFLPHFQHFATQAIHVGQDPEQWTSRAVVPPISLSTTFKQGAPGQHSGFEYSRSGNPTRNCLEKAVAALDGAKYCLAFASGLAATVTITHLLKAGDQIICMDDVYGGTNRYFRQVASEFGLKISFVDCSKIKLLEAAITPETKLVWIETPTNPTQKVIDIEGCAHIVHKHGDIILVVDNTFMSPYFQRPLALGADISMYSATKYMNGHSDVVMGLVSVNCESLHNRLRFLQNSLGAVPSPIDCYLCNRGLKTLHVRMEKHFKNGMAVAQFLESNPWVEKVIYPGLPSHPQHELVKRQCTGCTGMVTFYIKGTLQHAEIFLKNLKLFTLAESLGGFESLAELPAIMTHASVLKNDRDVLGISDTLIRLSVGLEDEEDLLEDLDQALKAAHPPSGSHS
UniProt P29590: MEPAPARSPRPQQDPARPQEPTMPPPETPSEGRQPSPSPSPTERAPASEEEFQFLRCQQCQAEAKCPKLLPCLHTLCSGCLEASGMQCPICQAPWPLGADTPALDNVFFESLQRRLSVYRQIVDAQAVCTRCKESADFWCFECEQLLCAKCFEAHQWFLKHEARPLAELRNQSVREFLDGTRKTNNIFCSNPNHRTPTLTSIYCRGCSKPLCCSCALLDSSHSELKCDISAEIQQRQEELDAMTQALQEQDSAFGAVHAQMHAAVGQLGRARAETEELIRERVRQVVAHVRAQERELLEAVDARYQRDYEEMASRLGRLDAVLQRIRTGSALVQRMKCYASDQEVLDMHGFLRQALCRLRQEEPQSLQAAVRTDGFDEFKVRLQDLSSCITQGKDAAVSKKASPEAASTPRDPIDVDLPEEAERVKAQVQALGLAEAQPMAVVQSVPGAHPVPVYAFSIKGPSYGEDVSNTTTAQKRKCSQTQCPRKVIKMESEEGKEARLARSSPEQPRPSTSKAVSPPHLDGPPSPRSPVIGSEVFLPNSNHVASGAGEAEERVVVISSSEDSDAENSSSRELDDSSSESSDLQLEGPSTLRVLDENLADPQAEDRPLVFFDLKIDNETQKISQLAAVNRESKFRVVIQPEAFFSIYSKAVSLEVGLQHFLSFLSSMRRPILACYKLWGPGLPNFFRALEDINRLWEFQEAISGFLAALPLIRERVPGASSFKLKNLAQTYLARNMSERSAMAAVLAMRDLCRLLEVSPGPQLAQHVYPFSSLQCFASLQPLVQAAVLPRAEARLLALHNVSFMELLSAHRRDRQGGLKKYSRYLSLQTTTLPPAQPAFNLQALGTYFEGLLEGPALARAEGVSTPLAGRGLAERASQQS
UniProt P32189: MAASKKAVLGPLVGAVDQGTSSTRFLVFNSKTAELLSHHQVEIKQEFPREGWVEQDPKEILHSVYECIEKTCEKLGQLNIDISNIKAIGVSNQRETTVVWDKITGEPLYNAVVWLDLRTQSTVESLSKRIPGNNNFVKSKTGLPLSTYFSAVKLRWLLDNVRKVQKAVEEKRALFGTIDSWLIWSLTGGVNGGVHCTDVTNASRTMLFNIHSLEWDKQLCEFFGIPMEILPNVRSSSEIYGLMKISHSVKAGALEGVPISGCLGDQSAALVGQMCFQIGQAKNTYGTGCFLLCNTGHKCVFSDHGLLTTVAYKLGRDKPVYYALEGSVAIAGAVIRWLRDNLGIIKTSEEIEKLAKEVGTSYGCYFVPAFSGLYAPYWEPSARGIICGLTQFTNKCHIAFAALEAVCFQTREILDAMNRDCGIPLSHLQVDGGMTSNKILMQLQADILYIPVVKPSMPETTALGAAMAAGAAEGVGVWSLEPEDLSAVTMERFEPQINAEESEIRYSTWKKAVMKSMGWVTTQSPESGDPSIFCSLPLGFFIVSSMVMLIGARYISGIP
UniProt P37108: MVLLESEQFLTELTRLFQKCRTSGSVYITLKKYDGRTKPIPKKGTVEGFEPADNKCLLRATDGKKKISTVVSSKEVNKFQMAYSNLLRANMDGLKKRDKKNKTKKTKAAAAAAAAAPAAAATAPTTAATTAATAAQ
UniProt P43362: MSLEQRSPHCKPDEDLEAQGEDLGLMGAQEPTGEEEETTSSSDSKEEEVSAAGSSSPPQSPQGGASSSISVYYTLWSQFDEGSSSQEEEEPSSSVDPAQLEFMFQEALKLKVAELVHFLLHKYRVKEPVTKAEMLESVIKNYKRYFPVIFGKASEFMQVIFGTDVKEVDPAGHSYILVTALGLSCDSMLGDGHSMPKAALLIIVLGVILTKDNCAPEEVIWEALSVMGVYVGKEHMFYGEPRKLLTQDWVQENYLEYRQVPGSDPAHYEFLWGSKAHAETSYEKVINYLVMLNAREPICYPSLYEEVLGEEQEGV
UniProt P43268: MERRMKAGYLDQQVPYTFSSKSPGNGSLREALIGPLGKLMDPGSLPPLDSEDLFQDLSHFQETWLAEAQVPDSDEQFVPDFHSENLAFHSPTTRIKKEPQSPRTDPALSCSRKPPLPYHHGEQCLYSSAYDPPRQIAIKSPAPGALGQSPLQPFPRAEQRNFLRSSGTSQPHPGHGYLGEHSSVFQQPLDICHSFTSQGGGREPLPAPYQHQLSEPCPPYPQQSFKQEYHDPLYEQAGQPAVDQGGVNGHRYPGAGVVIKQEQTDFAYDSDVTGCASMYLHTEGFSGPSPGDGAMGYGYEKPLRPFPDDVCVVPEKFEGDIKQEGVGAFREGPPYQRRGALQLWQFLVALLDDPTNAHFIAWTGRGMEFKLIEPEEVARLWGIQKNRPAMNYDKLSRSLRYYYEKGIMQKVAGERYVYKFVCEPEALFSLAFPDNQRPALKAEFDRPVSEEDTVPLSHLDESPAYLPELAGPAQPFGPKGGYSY
UniProt P43365, whole entry: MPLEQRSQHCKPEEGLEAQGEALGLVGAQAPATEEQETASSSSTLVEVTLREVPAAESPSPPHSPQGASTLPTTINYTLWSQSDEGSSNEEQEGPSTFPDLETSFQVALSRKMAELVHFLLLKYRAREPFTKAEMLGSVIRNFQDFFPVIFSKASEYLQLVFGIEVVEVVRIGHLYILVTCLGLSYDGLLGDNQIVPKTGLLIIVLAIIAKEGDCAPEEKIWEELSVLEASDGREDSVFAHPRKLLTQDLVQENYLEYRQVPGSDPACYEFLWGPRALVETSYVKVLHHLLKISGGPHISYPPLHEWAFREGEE
UniProt P30566: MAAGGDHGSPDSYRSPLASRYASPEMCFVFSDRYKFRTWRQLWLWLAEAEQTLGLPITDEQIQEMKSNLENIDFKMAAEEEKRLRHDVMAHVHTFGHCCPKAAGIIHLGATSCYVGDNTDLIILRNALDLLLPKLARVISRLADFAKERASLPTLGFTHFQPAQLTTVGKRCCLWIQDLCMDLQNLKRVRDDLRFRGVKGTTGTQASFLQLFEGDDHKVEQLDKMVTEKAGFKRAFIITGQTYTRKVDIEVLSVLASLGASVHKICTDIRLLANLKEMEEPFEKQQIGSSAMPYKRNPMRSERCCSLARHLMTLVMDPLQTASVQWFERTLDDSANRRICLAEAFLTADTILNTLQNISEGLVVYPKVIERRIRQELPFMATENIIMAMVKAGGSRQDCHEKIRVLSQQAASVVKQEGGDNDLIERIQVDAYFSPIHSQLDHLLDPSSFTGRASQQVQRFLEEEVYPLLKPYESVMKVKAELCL
UniProt P29122: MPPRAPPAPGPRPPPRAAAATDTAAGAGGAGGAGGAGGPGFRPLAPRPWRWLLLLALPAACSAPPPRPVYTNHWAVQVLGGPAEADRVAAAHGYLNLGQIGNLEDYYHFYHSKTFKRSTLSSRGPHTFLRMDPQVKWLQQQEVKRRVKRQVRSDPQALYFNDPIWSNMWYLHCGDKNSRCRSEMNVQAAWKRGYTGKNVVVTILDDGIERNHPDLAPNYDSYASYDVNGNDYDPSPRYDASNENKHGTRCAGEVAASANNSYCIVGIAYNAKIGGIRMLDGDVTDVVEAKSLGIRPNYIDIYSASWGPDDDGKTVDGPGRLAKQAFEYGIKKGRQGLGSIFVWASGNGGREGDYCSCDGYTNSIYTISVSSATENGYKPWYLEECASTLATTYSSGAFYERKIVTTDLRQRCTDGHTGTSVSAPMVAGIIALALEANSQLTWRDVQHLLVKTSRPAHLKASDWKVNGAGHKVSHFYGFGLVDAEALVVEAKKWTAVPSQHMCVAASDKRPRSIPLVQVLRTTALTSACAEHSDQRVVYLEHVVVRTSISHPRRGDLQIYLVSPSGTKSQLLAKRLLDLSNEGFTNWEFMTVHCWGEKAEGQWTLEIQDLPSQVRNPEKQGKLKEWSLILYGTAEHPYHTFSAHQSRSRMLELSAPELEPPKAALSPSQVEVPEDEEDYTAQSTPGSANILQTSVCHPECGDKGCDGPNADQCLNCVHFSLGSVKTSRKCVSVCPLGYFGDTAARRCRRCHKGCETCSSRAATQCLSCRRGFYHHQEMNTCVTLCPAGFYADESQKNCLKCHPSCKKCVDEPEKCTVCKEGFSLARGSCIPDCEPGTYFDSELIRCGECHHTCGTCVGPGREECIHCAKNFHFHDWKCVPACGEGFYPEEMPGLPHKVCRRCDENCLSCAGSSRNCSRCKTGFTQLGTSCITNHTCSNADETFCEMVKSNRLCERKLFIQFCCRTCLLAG
UniProt P46019: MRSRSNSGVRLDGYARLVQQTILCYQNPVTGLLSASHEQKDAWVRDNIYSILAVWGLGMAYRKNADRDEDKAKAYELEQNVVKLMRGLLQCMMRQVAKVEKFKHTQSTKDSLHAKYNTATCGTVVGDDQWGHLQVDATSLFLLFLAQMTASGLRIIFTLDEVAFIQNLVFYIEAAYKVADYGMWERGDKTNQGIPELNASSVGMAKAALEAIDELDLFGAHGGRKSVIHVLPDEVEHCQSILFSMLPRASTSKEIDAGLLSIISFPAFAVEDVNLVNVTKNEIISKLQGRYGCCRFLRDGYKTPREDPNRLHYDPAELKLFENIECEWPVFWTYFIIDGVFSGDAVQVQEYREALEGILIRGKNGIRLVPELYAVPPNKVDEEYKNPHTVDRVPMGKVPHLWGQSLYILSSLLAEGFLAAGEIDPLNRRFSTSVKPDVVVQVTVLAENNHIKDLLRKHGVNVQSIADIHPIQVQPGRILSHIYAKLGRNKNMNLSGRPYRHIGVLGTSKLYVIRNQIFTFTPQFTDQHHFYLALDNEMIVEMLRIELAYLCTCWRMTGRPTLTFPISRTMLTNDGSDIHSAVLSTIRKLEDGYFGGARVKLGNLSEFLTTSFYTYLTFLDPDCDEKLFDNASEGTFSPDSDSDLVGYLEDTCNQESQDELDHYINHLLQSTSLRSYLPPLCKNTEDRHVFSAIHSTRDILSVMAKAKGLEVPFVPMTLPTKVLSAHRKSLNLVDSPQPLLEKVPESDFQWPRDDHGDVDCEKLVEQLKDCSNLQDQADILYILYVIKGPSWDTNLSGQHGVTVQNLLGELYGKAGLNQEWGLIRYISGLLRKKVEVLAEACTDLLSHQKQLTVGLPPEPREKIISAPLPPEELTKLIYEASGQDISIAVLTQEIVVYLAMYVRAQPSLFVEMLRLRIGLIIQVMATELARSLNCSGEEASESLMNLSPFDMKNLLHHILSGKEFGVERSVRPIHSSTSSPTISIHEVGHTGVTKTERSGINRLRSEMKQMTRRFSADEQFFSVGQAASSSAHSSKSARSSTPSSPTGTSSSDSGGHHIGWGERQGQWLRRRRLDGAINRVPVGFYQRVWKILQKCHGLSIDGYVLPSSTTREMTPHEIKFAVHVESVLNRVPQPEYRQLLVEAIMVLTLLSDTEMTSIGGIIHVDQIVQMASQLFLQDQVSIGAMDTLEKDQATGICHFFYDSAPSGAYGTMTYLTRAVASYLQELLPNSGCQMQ
UniProt P43378: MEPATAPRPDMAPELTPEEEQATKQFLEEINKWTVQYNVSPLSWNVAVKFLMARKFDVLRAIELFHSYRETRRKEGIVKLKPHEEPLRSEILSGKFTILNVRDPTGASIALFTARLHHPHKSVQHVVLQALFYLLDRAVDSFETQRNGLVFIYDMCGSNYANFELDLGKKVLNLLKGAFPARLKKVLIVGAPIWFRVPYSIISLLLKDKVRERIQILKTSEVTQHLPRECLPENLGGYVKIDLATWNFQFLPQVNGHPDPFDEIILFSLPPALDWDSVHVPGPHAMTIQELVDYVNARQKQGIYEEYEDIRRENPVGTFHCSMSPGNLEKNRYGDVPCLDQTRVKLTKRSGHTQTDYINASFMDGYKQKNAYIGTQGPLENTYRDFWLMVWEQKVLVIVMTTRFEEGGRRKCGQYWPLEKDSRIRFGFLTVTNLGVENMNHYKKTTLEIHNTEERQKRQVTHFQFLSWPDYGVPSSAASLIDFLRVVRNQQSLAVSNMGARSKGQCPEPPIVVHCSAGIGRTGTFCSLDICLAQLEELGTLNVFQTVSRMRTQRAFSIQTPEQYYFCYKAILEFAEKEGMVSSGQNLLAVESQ

The list shows a part of the results. Small differences around the control level are noise.

Compound in this assay: Cc1nc(Nc2ncc(C(=O)Nc3c(C)cccc3Cl)s2)cc(N2CCN(CCO)CC2)n1 [dasatinib]
Put plainly: log2 fold change of tryptic peptide abundance, ligand vs vehicle (limited proteolysis) (log2 ratio); higher = more trypsin-susceptible (destabilized). Conditions: ligand concentration: 5 uM; sample: K562 cleared lysate.
Turning to “MSH2 (peptide sequence: DKQMFHIITGPNMGGK, peptide start residue: 660) (UniProt P43246)”, the log2 fold change was -0.506. To “ARL4A (peptide sequence: IKVTLGNSK, peptide start residue: 59) (UniProt P40617)” belongs -0.543; to “UniProt P36954 (peptide sequence: TEDHPCQKCGHK, peptide start residue: 81)”, -0.284. To “HMOX2 (peptide sequence: ETLEDGFPVHDGK, peptide start residue: 247) (UniProt P30519)” belongs 0.305; to “PSMB10 (peptide sequence: TLSSPTEPVKR, peptide start residue: 227) (UniProt P40306)”, 0.481. The figure for “RANBP1 (peptide sequence: TLEEDEEELFKMRAK, peptide start residue: 40) (UniProt P43487)” is 0.978; for “EEF1D (peptide sequence: ATNFLAHEKIWFDK, peptide start residue: 2) (UniProt P29692)” it is -0.35. Take “CTH (peptide sequence: QVASEFGLK, peptide start residue: 123) (UniProt P32929)”: the log2 fold change was -0.333. The figure for “PML (peptide sequence: SSPEQPRPSTSK, peptide start residue: 504) (UniProt P29590)” is -0.278; for “MTOR (peptide sequence: YHPQALIYPLTVASK, peptide start residue: 1967) (UniProt P42345)” it is -0.519; for “GTF2H1 (peptide sequence: AKLQESIEYEDLGKNNSVK, peptide start residue: 352) (UniProt P32780)” it is 0.499. As for “GK (peptide sequence: EILDAMNR, peptide start residue: 412) (UniProt P32189)”, the log2 fold change was -0.0893. Regarding “RFC1 (peptide sequence: IPIICMCNDRNHPK, peptide start residue: 746) (UniProt P35251)”, the log2 fold change was -0.858.

For “CLIP1 (peptide sequence: VELLNQLEEEKR, peptide start residue: 425) (UniProt P30622)”, the log2 fold change was 0.187. Regarding “BLVRB (peptide sequence: LPSEGPRPAHVVVGDVLQAADVDK, peptide start residue: 40) (UniProt P30043)”, the log2 fold change was found to be 0.268. To “SRP14 (peptide sequence: ANMDGLKK, peptide start residue: 89) (UniProt P37108)” belongs -0.288; to “MCM7 (peptide sequence: EDVNEAIR, peptide start residue: 628) (UniProt P33993)”, -0.282.

Take “TAGLN2 (peptide sequence: TLMNLGGLAVAR, peptide start residue: 128) (UniProt P37802)”: the log2 fold change is -0.14. To “MAGEA9 (peptide sequence: VAELVHFLLHK, peptide start residue: 112) (UniProt P43362)” belongs -0.4; to “ZNF76 (peptide sequence: VLHDSQIPR, peptide start residue: 145) (UniProt P36508)”, -0.182; to “ETV4 (peptide sequence: NRPAMNYDKLSR, peptide start residue: 380) (UniProt P43268)”, 0.177.

For “MAGEA12 (peptide sequence: KMAELVHFLLLK, peptide start residue: 112) (UniProt P43365)”, the log2 fold change came to 0.277. To “ADSL (peptide sequence: EMEEPFEK, peptide start residue: 277) (UniProt P30566)” belongs -0.645; to “ADD2 (peptide sequence: EQNRQDVK, peptide start residue: 504) (UniProt P35612)”, 0.816. The figure for “CCT6A (peptide sequence: ETLIDVAR, peptide start residue: 146) (UniProt P40227)” is -0.122; for “MDH2 (peptide sequence: IFGVTTLDIVR, peptide start residue: 166) (UniProt P40926)” it is -0.251. To “RPL22 (peptide sequence: SKITVTSEVPFSKR, peptide start residue: 68) (UniProt P35268)” belongs -0.0458; to “PCSK6 (peptide sequence: QAFEYGIK, peptide start residue: 324) (UniProt P29122)”, 0.439. Regarding “CTNNA1 (peptide sequence: NTSDVISAAKK, peptide start residue: 738) (UniProt P35221)”, the log2 fold change was -0.405.

For the target “PHKA2 (peptide sequence: RLDGAINRVPVGFYQR, peptide start residue: 1072) (UniProt P46019)”, the log2 fold change was -0.243. “UniProt P41250 (peptide sequence: APQVDVDK, peptide start residue: 86)”: the log2 fold change stood at 0.199. The figure for “PDIA3 (peptide sequence: RLAPEYEAAATR, peptide start residue: 62) (UniProt P30101)” is 0.129.

For “SERPINB1 (peptide sequence: LVLVNAIYFK, peptide start residue: 159) (UniProt P30740)”, the log2 fold change came out at 0.279.

“MYH9 (peptide sequence: QLEEAEEEAQRANASRR, peptide start residue: 1878) (UniProt P35579)”: the log2 fold change is -1.01. To “PTPN9 (peptide sequence: SGHTQTDYINASFMDGYKQK, peptide start residue: 350) (UniProt P43378)” belongs -0.553; to “TIA1 (peptide sequence: KDTSSSTVVSTQR, peptide start residue: 89) (UniProt P31483)”, 0.294.
